In doi:10.1101/2021.06.18.449081:
These are yes or no findings as the source states them, for the method shown. In cells and extracts the contact can be indirect. Some entries that bind do so weakly or less than the wild type.

By UniProt entry, the sequences of proteins in these tests, tags left out.
UniProt P10218: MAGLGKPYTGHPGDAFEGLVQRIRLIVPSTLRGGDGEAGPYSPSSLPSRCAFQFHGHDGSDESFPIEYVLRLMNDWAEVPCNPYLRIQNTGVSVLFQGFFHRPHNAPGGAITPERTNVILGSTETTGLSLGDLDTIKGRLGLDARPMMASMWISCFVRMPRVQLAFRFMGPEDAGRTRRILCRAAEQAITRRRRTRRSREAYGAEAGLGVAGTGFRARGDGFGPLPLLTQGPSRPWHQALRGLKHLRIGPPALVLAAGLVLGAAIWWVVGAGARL
UniProt P10215: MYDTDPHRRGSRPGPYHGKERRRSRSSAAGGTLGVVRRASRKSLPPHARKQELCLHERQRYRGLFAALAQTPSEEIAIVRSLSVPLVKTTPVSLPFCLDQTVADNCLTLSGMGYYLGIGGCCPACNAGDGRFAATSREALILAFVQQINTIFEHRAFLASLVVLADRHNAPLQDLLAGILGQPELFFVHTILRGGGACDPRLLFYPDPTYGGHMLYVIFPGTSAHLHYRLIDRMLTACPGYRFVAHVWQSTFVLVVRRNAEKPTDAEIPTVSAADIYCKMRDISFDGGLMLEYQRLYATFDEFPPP

Molecular target: HA-tagged HSV-1 pUL34 (HSV-1 strain F) (UniProt P10218)
Assay: co-IP

Substance: HSV-1 pUL31-FLAG (from UniProt P10215 1-306)
- binding: binds
